Primary screen of a compound library

A: 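Whole-cell assay for inhibitors of Mycobacterium tuberculosis growth, labelled Cornell in the record; the read-out is not stated. The concentration is filed as 10 mM, unlikely as a test dose, so the dose is not known. The record gives no direction; compounds strong in two other growth screens of this library score well above the rest, so higher reads as stronger inhibition. Size under these conditions: about 53,000 compounds, about 900 of them at 50% or above in at least one test.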
B: 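Assay on Mycobacterium tuberculosis, filed only as a heat shock assay from Cornell; the read-out is not stated. The concentration is filed as 10 mM, unlikely as a test dose, so the dose is not known. The record gives no direction; compounds that gave an IC50 in retests scored well above the rest, so higher reads as stronger inhibition. About 69,000 compounds were tested under these conditions; 1.4% (about 930) showed 50% or more at least once.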

Values are the deposited “Percent Effect”, in %. The record does not define 0% and 100%; most values in the screen are far below 50% and negative numbers occur (in some assays of this library far below -100). Compounds were drawn at random from those tested, without regard to their results.

O=C(NC1CCCOc2cc(Cl)ccc21)c1ccc(=O)[nH]n1 (configuration not stated) gave A: 11.11%; B: 17.72%.
COc1ccccc1C(C)CNC(=O)c1c(C)nn(C)c1OC (configuration not stated) gave A: 20.98%; B: 1.065%.
COc1cccc2c1OCC(C(=O)N1CCC(N3CCSCC3)CC1)C2 (configuration not stated) gave A: 6.701%; B: -27.02%.
O=S(=O)(CCc1ccccc1Cl)CC(O)CO (configuration not stated) gave A: 15.76%; B: 13.88%.
Cc1cc(C)n(C2CCCN(C(=O)c3ccc(N(C)C)nc3)C2)n1 (configuration not stated) gave A: -19.67%; B: -5.518%.
Nc1cccc(C2CN(C(=O)CN3CCOCC3)CCO2)n1 (configuration not stated) gave A: 1.618%; B: 21.54%.
CC(C)Nc1nc(-c2ccccc2)nc2c1CCN(C(=O)C1CC1)CC2.O=C(O)C(F)(F)F gave A: -4.39%; B: 45.75%.
Cc1cc(C(=O)NCc2ccc(F)cc2)c2c(C3CCCN3)noc2n1 (configuration not stated) gave B: -19.51%.
COCc1nc(C(=O)NS(=O)(=O)c2ccc(F)c(F)c2)cs1 gave B: -0.5684%.
Cc1cc(C)cc(C2(C(=O)N3CCCC(n4cncn4)C3)CC2)c1 (configuration not stated) gave A: 17.56%; B: -0.5421%.
CN1CCCN(S(C)(=O)=O)c2cc(F)ccc21 gave B: -9.986%.
CCOC(=O)[C@H]1[C@@H](O)C(=O)N(C)C12CCN(S(=O)(=O)CC)CC2 gave A: 9.016%; B: 7.233%.
CC(C)(O)CCc1cccc(C(=O)N2CCC[C@H]2CN2CCCC2)c1 gave A: -23.42%; B: -14.25%.
Cc1cccc(NC(=O)c2cnc(C3CCCNC3)cn2)n1 (configuration not stated) gave A: 6.659%; B: 1.641%.
NC[C@H]1CC[C@H](C(NC(=O)CC2CCCC2)c2ccccn2)CC1 (some centres not stated) gave B: -21.05%.
Cc1nc(C2CCCN(C(=O)c3cccc4c3OCO4)C2)sc1C (configuration not stated) gave A: 11.15%; B: -1.795%.
CO[C@@H]1CCC[C@@H](N(C)C(=O)c2cn3cc(C)ccc3n2)[C@H]1O gave A: 8.296%; B: -1.15%.
CCOc1ccc2[nH]c(=O)c(CN3CCC(O)CC3)cc2c1 gave A: 2.884%; B: 18.53%.
COc1ccc2c(c1)c(C(=O)Nc1nnn[nH]1)cn2C(C)C gave A: -2.675%; B: -16.32%.
CCC(CC)C(=O)NCc1cn2cc(Br)ccc2n1 gave A: -6.209%; B: -32.65%.
CC(C)c1cc(C2CCCN2Cc2nc(-c3ccco3)no2)no1 (configuration not stated) gave A: 3%; B: -8.129%.
Cc1cc(C(F)(F)F)cc(N2CCN(Cc3ccccc3)CC(O)C2)n1 (configuration not stated) gave B: 4.224%.
c1ccc(-n2cc(CNCC3CCCN3c3cccnn3)cn2)cc1 (configuration not stated) gave A: -38.92%; B: -10.88%.
CC(CNC(=O)c1cnc[nH]1)Oc1ccc(Cl)cc1 (configuration not stated) gave A: 4.396%; B: -19.06%.
Cc1cccc(C(C(=O)N(C)Cc2ccco2)N(C)C)c1 (configuration not stated) gave A: -3.284%; B: 4.532%.
Cc1ccc(CN(CCN(C)C)C(=O)Nc2cnn(C)c2)s1 gave A: -17.37%; B: -2.462%.
Cc1cc(C(=O)N2C[C@H](CO)C[C@H](CN3CCOCC3)C2)nc(C)n1 gave B: -7.3%.
CC(C)N1CCC(Cc2cnc(-c3cccc(C(=O)O)c3)cn2)C1 (configuration not stated) gave A: 0.7163%; B: -15.08%.
COC(=O)CC(NC(=O)c1cccc(N2CCCC2=O)c1)C(=O)OC (configuration not stated) gave A: 18.36%; B: -1.117%.
CC(C)CC(CCO)CNC(=O)N1CCOC2(CCCC2)C1 (configuration not stated) gave A: 8.336%; B: 3.274%.
CC(C)c1nnc2n1CCN(C(=O)c1ccc3c(c1)COC3)C2 gave A: -17.99%; B: 9.43%.
CN1CCCN(S(=O)(=O)c2cnn(C)c2)c2cc(Cl)ccc21 gave B: 0.8903%.
Cc1ccnc(C2CCN(S(=O)(=O)c3cn(C)cn3)CC2)n1 gave A: -55.16%; B: 0.95%.
O=C(Nc1ccc(-n2ccnc2)c(F)c1)C1CCN(C(=O)C2CC2)CC1 gave A: 12.73%; B: 11.83%.
NC(=O)Nc1cccc(CNC(=O)CCCOCc2ccccc2)c1 gave A: 11.04%; B: 1.431%.
O=C1NCCCCC1NC(=O)C1(c2ccc3c(c2)OCCO3)CCCC1 (configuration not stated) gave A: -14.65%; B: -5.84%.
CN(C)CCNCC1COCc2c(-c3ccnn3C)nnn2C1 (configuration not stated) gave A: -23.55%; B: -16.53%.
Cc1noc(OCc2csc(C)n2)n1 gave A: 28.81%; B: -8.032%.
CCN(CC)Cc1nc2c(o1)CN(S(=O)(=O)c1cccs1)C2.O=C(O)C(F)(F)F gave A: 0.8174%; B: 10.46%.
CC(C)c1cc(NCC(O)CO)n2nccc2n1 (configuration not stated) gave B: 7.568%.
CN(C)C(=O)Cc1ccccc1NCc1cc(C#N)ccc1F gave A: 3.977%; B: -10.82%.
CCOC(=O)CSc1nnc(C(N)CC(C)C)o1.Cl (configuration not stated) gave A: 25.29%; B: -5.816%.
COCC(=O)N1CCC2(CC(C(=O)NCc3cccnc3)=NO2)C1 (configuration not stated) gave A: 4.673%; B: -48.7%.
c1cnc(CC2COCCN(C3CCCCC3)C2)cn1 (configuration not stated) gave A: 63.08%; B: 3.256%.
COc1ncccc1C(=O)Nc1ccccc1-c1ccc(=O)n(C)n1 gave A: 19.32%; B: -2.189%.
CN1CCCC1c1cccc(Cc2ccccc2F)n1 (configuration not stated) gave A: 24.35%; B: 69.94%.
O=C(NCc1ccncc1)N(Cc1ccccc1F)C1CC1 gave A: 4.297%; B: -20.69%.

Once more, the final 3:

| Compound | A | B |
|---|---|---|
| `COc1ncccc1C(=O)Nc1ccccc1-c1ccc(=O)n(C)n1` | 19.32 | -2.189 |
| `CN1CCCC1c1cccc(Cc2ccccc2F)n1` (configuration not stated) | 24.35 | 69.94 |
| `O=C(NCc1ccncc1)N(Cc1ccccc1F)C1CC1` | 4.297 | -20.69 |

Source: ChEMBL document CHEMBL3988442, “University of Dundee, Small-Polar-MMV Screening Library” (2021).